Reference: patent US9278925B2, “Substituted 3-(biphenyl-3-yl)-4-hydroxy-8-methoxy-1-azaspiro[4.5]dec-3-en-2-one” (BAYER INTELLECTUAL PROPERTY GMBH, priority 2011, dated 2016)
A number of entries come with more than one value. Only these are listed. The source may hold further records. Values that stand side by side read as repeated measurements on other runs, samples or individuals; one of them may be the mean.

Tested on: human ACC1
Test: Human ACC1 enzyme assay (ADP-Glo)
Format: biochemical
Details: pairwise, same dilution series

SMILES	Ratio IC50s ACC2/ACC1 (respective measurement)
CO[C@]1(C)CC[C@]2(CC1)NC(=O)C(c1cc(-c3ccc(Cl)cc3)ccc1C)=C2O [Example V.1-a, (5r,8r)-3-(4′-Chloro-4-methylbiphenyl-3-yl)-4-hydroxy-8-methoxy-8-methyl-1-azaspiro[4.5]dec-3-en-2-one]	29, 22, 26, 42, 24, 16, 13
CO[C@]1(C)CC[C@]2(CC1)NC(=O)C(c1cc(-c3ccc(Cl)c(F)c3)ccc1C)=C2O [Example V.2-a, (5r,8r)-3-(4′-Chloro-3′-fluoro-4-methylbiphenyl-3-yl)-4-hydroxy-8-methoxy-8-methyl-1-azaspiro[4.5]dec-3-en-2-one]	114.8, 37.0, 79.1, 87.1, 55.9, 42.4, 48.0
